Our source for the binding values is publication PMC9445031.

Protein sequences, listed by entry. Tags and fused reporters are not part of them.
UniProt Q14839: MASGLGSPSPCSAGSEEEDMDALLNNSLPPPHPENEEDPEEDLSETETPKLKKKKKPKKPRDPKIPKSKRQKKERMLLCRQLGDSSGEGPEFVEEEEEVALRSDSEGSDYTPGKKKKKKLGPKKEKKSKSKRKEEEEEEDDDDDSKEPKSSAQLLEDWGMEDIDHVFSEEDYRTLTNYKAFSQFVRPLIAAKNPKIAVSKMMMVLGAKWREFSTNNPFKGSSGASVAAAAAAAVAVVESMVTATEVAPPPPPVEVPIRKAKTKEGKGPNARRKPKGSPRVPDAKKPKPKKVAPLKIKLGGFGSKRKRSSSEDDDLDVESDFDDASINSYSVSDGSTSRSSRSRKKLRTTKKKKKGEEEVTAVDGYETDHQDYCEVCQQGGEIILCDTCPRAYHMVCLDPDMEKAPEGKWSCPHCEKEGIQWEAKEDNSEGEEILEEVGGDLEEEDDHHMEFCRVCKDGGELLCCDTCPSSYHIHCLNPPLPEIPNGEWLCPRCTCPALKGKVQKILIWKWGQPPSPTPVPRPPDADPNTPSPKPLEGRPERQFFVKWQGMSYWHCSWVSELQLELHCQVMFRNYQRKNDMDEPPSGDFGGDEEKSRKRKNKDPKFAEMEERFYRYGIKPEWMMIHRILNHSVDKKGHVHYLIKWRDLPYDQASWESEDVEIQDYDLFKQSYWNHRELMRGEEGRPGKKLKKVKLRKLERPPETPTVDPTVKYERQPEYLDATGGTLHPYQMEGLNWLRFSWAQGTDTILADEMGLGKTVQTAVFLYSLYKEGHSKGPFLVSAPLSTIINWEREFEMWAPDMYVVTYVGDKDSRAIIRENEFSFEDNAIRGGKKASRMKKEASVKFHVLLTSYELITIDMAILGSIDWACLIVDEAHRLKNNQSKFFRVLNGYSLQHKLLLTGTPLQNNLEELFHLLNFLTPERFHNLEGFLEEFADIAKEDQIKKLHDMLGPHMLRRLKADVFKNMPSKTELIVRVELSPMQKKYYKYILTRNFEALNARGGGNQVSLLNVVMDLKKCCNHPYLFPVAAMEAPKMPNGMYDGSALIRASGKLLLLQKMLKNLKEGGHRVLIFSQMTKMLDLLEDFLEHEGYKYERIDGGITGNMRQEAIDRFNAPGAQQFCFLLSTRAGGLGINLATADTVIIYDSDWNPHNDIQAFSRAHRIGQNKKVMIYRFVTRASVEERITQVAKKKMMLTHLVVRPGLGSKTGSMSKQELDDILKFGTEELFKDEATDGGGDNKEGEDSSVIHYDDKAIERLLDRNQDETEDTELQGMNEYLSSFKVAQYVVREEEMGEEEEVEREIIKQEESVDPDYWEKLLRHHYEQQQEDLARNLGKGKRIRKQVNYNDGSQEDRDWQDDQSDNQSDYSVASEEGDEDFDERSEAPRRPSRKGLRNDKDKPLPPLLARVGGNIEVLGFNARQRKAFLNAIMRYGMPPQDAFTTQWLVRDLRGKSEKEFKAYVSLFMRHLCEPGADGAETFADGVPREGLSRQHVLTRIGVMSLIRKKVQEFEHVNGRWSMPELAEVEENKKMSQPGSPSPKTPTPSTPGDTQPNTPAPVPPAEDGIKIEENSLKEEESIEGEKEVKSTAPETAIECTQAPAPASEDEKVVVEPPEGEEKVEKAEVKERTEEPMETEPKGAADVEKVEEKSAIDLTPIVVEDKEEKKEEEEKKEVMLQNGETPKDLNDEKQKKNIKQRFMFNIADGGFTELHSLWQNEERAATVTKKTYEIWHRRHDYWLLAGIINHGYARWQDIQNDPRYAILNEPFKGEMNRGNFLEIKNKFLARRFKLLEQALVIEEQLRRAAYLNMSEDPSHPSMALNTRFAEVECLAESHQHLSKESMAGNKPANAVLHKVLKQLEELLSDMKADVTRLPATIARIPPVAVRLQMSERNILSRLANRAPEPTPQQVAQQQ
UniProt Q13547: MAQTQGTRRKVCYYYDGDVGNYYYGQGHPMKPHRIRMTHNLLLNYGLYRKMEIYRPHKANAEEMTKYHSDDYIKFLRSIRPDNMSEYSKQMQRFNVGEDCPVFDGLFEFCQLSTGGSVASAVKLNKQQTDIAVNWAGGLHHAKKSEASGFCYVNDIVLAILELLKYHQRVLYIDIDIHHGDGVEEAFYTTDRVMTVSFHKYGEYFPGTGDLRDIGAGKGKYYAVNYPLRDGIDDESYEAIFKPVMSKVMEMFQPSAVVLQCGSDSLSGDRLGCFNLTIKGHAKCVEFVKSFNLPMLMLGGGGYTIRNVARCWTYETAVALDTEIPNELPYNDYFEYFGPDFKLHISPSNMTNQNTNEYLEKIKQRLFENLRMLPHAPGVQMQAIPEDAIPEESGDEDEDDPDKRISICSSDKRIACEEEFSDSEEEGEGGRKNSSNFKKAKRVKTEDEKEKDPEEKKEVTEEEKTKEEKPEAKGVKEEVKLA

Results are given in words; binding and its absence hold for the method and conditions named. For part of these data: In cells and extracts the contact can be indirect. Some entries that bind do so weakly or less than the wild type.

In test [1] the target is T1, Zinc Finger MYND (Myeloid, Nervy, and DEAF-1) type containing 8 (human (in lysate of the paper's cell lines, all human; line not stated)) (UniProt Q9ULU4).
T1 sequence: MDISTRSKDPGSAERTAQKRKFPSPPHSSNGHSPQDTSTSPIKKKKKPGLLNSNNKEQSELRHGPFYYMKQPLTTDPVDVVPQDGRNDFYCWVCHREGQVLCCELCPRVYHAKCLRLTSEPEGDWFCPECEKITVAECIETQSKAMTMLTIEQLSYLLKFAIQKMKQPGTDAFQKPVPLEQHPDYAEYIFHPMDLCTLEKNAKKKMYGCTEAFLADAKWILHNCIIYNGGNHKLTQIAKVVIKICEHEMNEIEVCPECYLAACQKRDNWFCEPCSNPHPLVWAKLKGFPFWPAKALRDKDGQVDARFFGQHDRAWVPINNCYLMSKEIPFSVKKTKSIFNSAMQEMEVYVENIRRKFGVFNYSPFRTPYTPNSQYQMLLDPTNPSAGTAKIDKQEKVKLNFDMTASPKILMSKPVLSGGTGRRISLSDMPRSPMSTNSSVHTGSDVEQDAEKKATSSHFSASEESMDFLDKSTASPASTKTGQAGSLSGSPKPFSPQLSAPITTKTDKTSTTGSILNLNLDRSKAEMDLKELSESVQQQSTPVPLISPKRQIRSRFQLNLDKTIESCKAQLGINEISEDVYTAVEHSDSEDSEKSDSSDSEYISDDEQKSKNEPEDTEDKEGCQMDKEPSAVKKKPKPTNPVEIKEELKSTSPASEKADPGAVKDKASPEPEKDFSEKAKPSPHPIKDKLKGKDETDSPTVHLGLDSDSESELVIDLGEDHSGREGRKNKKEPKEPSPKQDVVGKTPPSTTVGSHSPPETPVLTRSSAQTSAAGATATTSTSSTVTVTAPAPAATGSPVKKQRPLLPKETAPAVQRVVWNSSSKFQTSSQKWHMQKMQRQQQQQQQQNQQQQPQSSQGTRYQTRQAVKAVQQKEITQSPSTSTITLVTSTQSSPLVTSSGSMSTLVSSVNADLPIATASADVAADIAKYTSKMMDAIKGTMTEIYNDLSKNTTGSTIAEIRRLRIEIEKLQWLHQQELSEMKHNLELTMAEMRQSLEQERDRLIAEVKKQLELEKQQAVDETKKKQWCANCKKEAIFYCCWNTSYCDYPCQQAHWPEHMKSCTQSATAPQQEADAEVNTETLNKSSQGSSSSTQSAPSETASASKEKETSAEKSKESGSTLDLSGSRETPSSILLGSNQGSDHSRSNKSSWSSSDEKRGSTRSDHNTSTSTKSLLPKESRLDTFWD
Put plainly: Re-ChIP; sequential chromatin immunoprecipitation of cross-linked chromatin: first antibody, elution with 0.05 M DTT at 30 °C for 1 h, 20-fold dilution, second antibody; qPCR at the MAPT IGRR site.

For test [2], the target named is T1, Zinc Finger MYND (Myeloid, Nervy, and DEAF-1) type containing 8 (human (in lysate of the paper's cell lines, all human; line not stated)). Description: co-IP; cells cross-linked with 1% formaldehyde, neutralised with 125 mM glycine, lysed in RIPA buffer and sonicated; immunoprecipitation with the respective antibodies overnight, Dynabeads, western blot; in the presence of ATRA (CHD4, HDAC1). A general note: In western blotting, separated proteins are transferred to a membrane and probed.

Consider CHD4 (from UniProt Q14839 1-1912), for which the binding entry in test [1] and in test [2] was “binds” in each case. On to HDAC1 (from UniProt Q13547 1-482), for which the binding entry in test [2] is given as “binds”.
